Results reported in the supplement of paper PMC12578635.
± gives the standard deviation of the averaged measurements. The list shows a part of the results. Repeats are few or missing, and single values can be far off.

System: RAW 264.7 macrophages infected with S. aureus JE2-lux
Experiment: host macrophage viability (CellTiter-Fluor) relative to DMSO vehicle; higher = more viable host cells
Details: 10 µM; treatment time 4 h; gentamicin 50 µg/ml

Structure (SMILES)	host macrophage viability [%]
Cc1nc2nc(-c3ccccc3)nn2c(Sc2ccc(N)cc2)c1C	90.9
O=C(Nc1ccc(C(=O)OCc2nc3ccccc3[nH]2)cc1)c1ccc2nccnc2c1	108
Cc1ccc(C2C(C(=O)c3ccco3)=C(O)C(=O)N2CCCN(C)C)cc1 (stereo not given)	96.6
CCn1nc(C)c2[nH]c(=S)n(Cc3cccc(OC)c3)c(=O)c21	127
C/C(=N\Nc1nc2c(c(=O)[nH]c(=O)n2C)n1CC(C)C)c1ccccc1	134
CCOc1ccc(-c2cc3c(N4CCC(C(=O)NCc5cccnc5)CC4)nccn3n2)cc1	139
CCOC(=O)c1ccccc1NC(=O)CSc1nc2c(-c3ccccc3)csc2c(=O)n1C	115
COc1ccccc1-n1c(SCC(=O)Nc2ccccc2F)nc2cccnc21	113
CCOC(=O)c1c(NC(=O)CSc2nc(N)cc(=O)[nH]2)sc(C)c1C	123
CCCc1cc(O)n2nc(-c3cccc(OC)c3)cc2n1	118
O=C(c1cccn2c(-c3ccc(F)cc3)nnc12)N1CCC(Cc2ccccc2)CC1	115
Cn1c(=O)[nH]c(=O)c2c1nc(Br)n2CCSc1nc2ccccc2s1	96.6
COc1ccc(-c2noc(NCc3cccnc3)n2)cc1	118
Cc1ccc(Cl)cc1NC(=O)Cn1c(=O)c2nnc(CCC(=O)NC(C)C)n2c2ccccc21	121
O=C(CN1C(=O)COc2ccccc21)NNC(=O)Nc1ccccc1F	124
Cc1cc(C)cc(NC(=O)CSc2nc3c(c(=O)[nH]2)CN(C(C)C)CC3)c1	115
COc1ccccc1CNC(=O)CSc1nc(=O)[nH]cc1C	105
Cc1ccc(NC(=O)Cn2c3c(sc2=O)C2c4cc([N+](=O)[O-])ccc4OCC2CS3)cc1 (stereo not given)	111
O=C(Nc1ccc(Cl)cc1)N1CCc2nc(N3CCCCC3)ncc2C1	132
O=C(Nc1ccc2ccccc2c1)c1cc2ccccc2oc1=O	101 ± 1.6
Fc1cccc(Cl)c1CSc1nnc2ccc(-c3ccccn3)nn12	118
CCn1c(SCC(=O)NCc2ccc(F)cc2)nc2c(c1=O)SC(C)C2 (stereo not given)	122

Structure (SMILES)	host macrophage viability [%]
O=C(NCC(c1cccs1)S(=O)(=O)c1cccs1)Nc1ccc(Cl)cc1 (stereo not given)	110
O=C(CC1(O)C(=O)Nc2ccc(Cl)cc21)c1cccs1 (stereo not given)	109
CC1CCCCN1S(=O)(=O)c1ccc2c(c1)c(=O)n(CC(=O)N1CCCC1)c(=O)n2C (stereo not given)	116
CC(=O)c1cnc2cc(C(=O)NC(c3ccccc3)c3cccnc3)nn2c1C (stereo not given)	124
O=C(CSc1nnc(-c2ccco2)c(-c2ccco2)n1)c1cccs1	109
Cc1cc(OC(=O)c2ccc(Br)o2)c([N+](=O)[O-])c(=O)[nH]1	121
Cc1cc(N2CCOCC2)nc(SCC(=O)Nc2ccc(Cl)cc2Cl)n1	129
Cc1ccc(-c2nsc(NC(=O)c3oc4cc(Br)ccc4c3C)n2)s1	112
O=C(COc1coc(CN2CCN(c3ccccc3F)CC2)cc1=O)Nc1cccc([N+](=O)[O-])c1	104
COc1ccccc1NC(=O)CN1C(=O)C2(SCC(=O)N2c2cccc(F)c2)c2cc(C)ccc21 (stereo not given)	123
COCCNC(=O)CN1CCN(c2ncc(NC(C)=O)cc2C(=O)O)CC1	115
Cn1c(=O)[nH]c(=O)c2c1nc1n2CC(c2ccc(Br)cc2)O1 (stereo not given)	113
COc1ccc(C(=O)Nc2sc3c(c2C(N)=O)CCCCC3)c(OC)c1	117 ± 2.3
Cc1ccc(-c2ncc3c(=O)n(CC(=O)Nc4nccs4)c(=O)n(C)c3n2)cc1	130
Cn1nc(C(C)(C)C)cc1C(=O)N1CCc2c(nc(N3CCOCC3)[nH]c2=O)C1	136
COc1cccc(-c2ocnc2C(=O)Nc2ccc(CN3CCCCC3)cc2)c1	102
O=C(COc1ccc(Cl)cc1)Nc1nc2c(s1)CSc1ccccc1-2	120
CCc1c(C)nc2ncnn2c1Sc1ccc(NC(=O)C2CC(=O)N(c3ccc(C)cc3)C2)cc1 (stereo not given)	116
O=C(NCc1n[nH]c(=O)c2ccccc12)Nc1c(F)cccc1F	135
COC(=O)c1cccc(-n2nnnc2SCC(=O)Nc2ccc(F)cc2)c1	90.7
Cc1ccc(-c2c(C(F)(F)F)nn3c(NCc4cccnc4)cc(C)nc23)cc1	108
Cc1ccc(NC(=O)CN(C2=NC3CS(=O)(=O)CC3S2)c2ccc(C(C)C)cc2)cc1 (stereo not given)	131

Reformatted as a markdown table: 3 of the compounds above

| Structure (SMILES) | host macrophage viability [%] |
| --- | --- |
| O=C(CC1(O)C(=O)Nc2ccc(Cl)cc21)c1cccs1 (stereo not given) | 109 |
| COCCNC(=O)CN1CCN(c2ncc(NC(C)=O)cc2C(=O)O)CC1 | 115 |
| O=C(COc1ccc(Cl)cc1)Nc1nc2c(s1)CSc1ccccc1-2 | 120 |

(cont.)

Structure (SMILES)	host macrophage viability [%]
COc1cccc2sc(NC(=O)c3cccc(C(F)(F)F)c3)nc12	111
Cc1ccc2sc(NNC(=O)c3nc4ccccc4s3)nc2c1C	138 ± 22
COC(=O)C1Sc2[nH]c(=O)sc2C(c2cccc([N+](=O)[O-])c2)C1C(=O)OC (stereo not given)	117
CCOc1ccccc1C1C(C#N)=C(N)Oc2[nH]nc(-c3ccccc3)c21 (stereo not given)	101 ± 11
CN1CCN(Nc2ncnc(N)c2[N+](=O)[O-])CC1	119
CC1CCc2c(sc3ncnc(SCC(=O)Nc4ccc(C(=O)O)cc4)c23)C1 (stereo not given)	104
CCOC(=O)c1ccccc1NC(=O)CSc1nc(=O)[nH]c(C)c1C(=O)OCC	118
CNC(=S)N(CCc1c(C)[nH]c2ccc(C)cc12)Cc1cccnc1	117
O=C(CN1CCC2(CC1)NC(=O)N(Cc1ccc(Cl)cc1)C2=O)Nc1cccc(F)c1	115
Cc1cc(NC(=O)Cn2c(C)cc(C)c(C#N)c2=O)[nH]n1	109
COc1ccc([N+](=O)[O-])cc1NC(=O)c1c[nH]c(=O)n(-c2ccc(OC)c(OC)c2)c1=O	98.8 ± 2.5
Cc1ccc(Nc2nc(NCCOCCO)nc(N)c2[N+](=O)[O-])cc1C	88.5
Cc1ccc(-n2nc(C)c3c(C)cc(=O)[nH]c32)cc1C	91.6
O=C1C2C3CC(C2C(=O)N1c1ccc(Cl)cc1)C1C(c2cccnc2)c2sc(=O)[nH]c2SC31 (stereo not given)	112
CSc1ccccc1NS(=O)(=O)c1cc2c3c(c1)CCC(=O)N3CCC2	105
COC(=O)c1ccc(NC(=O)CSc2ncc(CO)n2Cc2ccc(F)cc2)cc1	113
Cc1cc(C)c2nc(NC(=O)CSc3ccccc3)sc2c1	115
O=C1C(NS(=O)(=O)c2ccccc2)=C/C(=N\S(=O)(=O)c2ccc(F)cc2)c2ccccc21	90.5
CCOc1ccccc1Nc1ncnc2c1c(C)c(C)n2-c1cccc(F)c1	117
CNc1n[nH]c(N)c1-c1nc(-c2ccccc2C)no1	113
CC1=NN(Cc2ccccc2C)c2nc3c(c(=O)n(C)c(=O)n3C)n2C1C (stereo not given)	108

For reference, 2 of the compounds above:
Structure (SMILES)	host macrophage viability [%]
COc1ccccc1-n1c(SCC(=O)Nc2ccccc2F)nc2cccnc21	113
CCOC(=O)c1c(NC(=O)CSc2nc(N)cc(=O)[nH]2)sc(C)c1C	123
